# Results published in PubChem BioAssay AID2685 (National Center for Advancing Translational Sciences (NCATS), 2010).
# Some of the results follow. These are further read-outs of the screen, such as a control signal, another cell line or another target. No call is given for them. Most of these compounds were active or inconclusive in the main read-out, so they are no random draw. The note in brackets gives the kind of curve behind each potency; many fits are weak.
# Test: qHTS Assay for Lipid Storage Modulators in Drosophila S3 Cells;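 on cell number change: cells counted by Cell Tracker Red CMTPX staining in the red channel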
# Conditions: BODIPY lipid droplet fluorescence, 18-24 h; for cell number change: measured here: cell count max response, cells fed with added oleic acid
# Summary of the method: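 Laser-scanning cytometry quantifies lipid droplet accumulation (500–530 nm total intensity; droplet/cell object ratio) in oleic acid-fed (400 uM added) Drosophila S3 cells treated with a concentration series. 20 uM Triacsin C defined 100% inhibition.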
# [1] = measured here: lipid fluorescence (Fed channel) AC50, cells fed with added oleic acid
# [2] = measured here: cell number channel AC50, cells fed with added oleic acid
Compound,cell number change,AC50 [1],AC50 [2]
CN(C)C(=O)c1ccc(-c2cc(C(F)(F)F)nn2C)s1,-30.8%,,
Cc1cccc(NC(=S)NC(NC(=O)c2ccco2)C(Cl)(Cl)Cl)c1 (centres undefined),-23.4%,"4.11 µM [falling, partial curve]",
CCNC(=S)N1CCN(S(=O)(=O)c2cccc(C(F)(F)F)c2)CC1,8.92%,"29.1 µM [falling, single point]","2.59 µM [rising, single point]"
Cc1ccc(NC(=O)COc2ccc(-c3nnco3)cc2)cc1S(=O)(=O)N1CCOCC1,20.8%,"3.26 µM [rising, partial curve]",
Cc1ccc(C2=CSC3=NCCN23)c(C)c1,-14.6%,"0.013 µM [falling, full curve]",
CC12C(=O)N(c3nccs3)C(=O)C1C1C=CC2C1 (centres undefined),-33.2%,"29.1 µM [falling, single point]","29.1 µM [falling, single point]"
CC(C)C(=O)Nc1nnc(SCC(=O)NCc2ccc3c(c2)OCO3)s1,7.14%,"0.146 µM [falling, full curve, poor fit]","0.146 µM [falling, full curve, poor fit]"
O=P1(Nn2cnnc2)C=C(c2ccccc2)OC(c2ccccc2)=C1,33.4%,"29.1 µM [rising, single point]",
COc1ccccc1C(=O)NC(=S)Nc1ccc(N2CCN(C(=O)c3ccco3)CC2)cc1,-36.1%,"3.66 µM [falling, single point]","7.31 µM [falling, partial curve]"
CCCn1c(=S)[nH]c2cc(OC)c(OC)cc2c1=O,,"23.1 µM [rising, partial curve, poor fit]","0.259 µM [rising, partial curve, poor fit]"
Cc1ccc(CN2CCN(C(=O)c3cccc4ccccc34)CC2)cc1,31.9%,,"0.146 µM [rising, full curve, poor fit]"
COc1cc([C@@H]2[C@H]3CN(C)CC=C3C(C#N)=C(N)C2(C#N)C#N)cc2c1OCO2,,,"6.51 µM [rising, single point]"
CCn1c(-c2ccccc2SC)n[nH]c1=S,-16.4%,,
O=C(O)CCCC(=O)NCCc1cccc(Cl)c1,-25.7%,"0.651 µM [falling, full curve]",
Cc1cc(=O)[nH]c(N/N=C/c2cccs2)n1,-21.2%,"25.9 µM [falling, single point]",
CCN(C(=O)COC(=O)c1ccc(=O)n(Cc2ccccc2)n1)C1CCS(=O)(=O)C1 (centres undefined),-6.51%,"0.461 µM [falling, single point]",
Cc1cc(C)cc(C(=O)NCc2ccc3c(c2)OCO3)c1,-5.77%,"25.9 µM [rising, single point]",
Cc1c(Cc2ccccc2)c(=O)oc2c(C)c(OCC(=O)N[C@@H](Cc3ccccc3)C(=O)O)ccc12,15.5%,"23.1 µM [rising, single point]",
Cc1ccc(Nc2cc(C)nn2-c2nc(C)cc(=O)[nH]2)cc1,-24.1%,"5.17 µM [falling, full curve, poor fit]","5.8 µM [falling, partial curve, poor fit]"
Nc1cc(C2CCCC2)nn1-c1ccccc1,-13%,"6.51 µM [rising, single point]",

Compound,cell number change,AC50 [1],AC50 [2]
CCOc1ccc(NC(=O)C/C(C)=N/NC(=O)c2cnccn2)cc1,21.5%,"29.1 µM [rising, single point]",
Cc1ccc(-n2ccc(=O)c(C(=O)Nc3ccc(S(=O)(=O)Nc4nccs4)cc3)n2)cc1,13.5%,"6.51 µM [rising, single point]",
O=C(Nc1ccccc1)C1CCN(C(=O)c2ccccc2)CC1,5.94%,,
CCC(c1nnc(SCC(=O)NC23CC4CC(CC(C4)C2)C3)o1)N(C)C (centres undefined),-28.1%,"23.1 µM [falling, single point]",
Cc1ccccc1N(C(=O)c1csnn1)C(C(=O)NC1CCCCC1)c1ccncc1 (centres undefined),11.7%,,
COc1cc2c(cc1NC(=O)COC(=O)[C@@H](NC(=O)c1ccccc1)C(C)C)oc1ccccc12,-11.5%,"9.2 µM [falling, single point]",
O=C(NCCN1CCN(c2ccccc2)CC1)c1ccc2c(c1)[nH]c(=S)n1c3ccccc3nc21,-33.4%,"29.1 µM [falling, single point]","29.1 µM [falling, single point]"
CCOC(=O)CN1CCS(=O)(=O)CC1,-34.5%,"5.01 µM [falling, partial curve]","7.08 µM [falling, full curve, poor fit]"
Cc1ccccc1OCC(=O)O/N=C(\N)Cc1ccc(Cl)cc1,67.8%,,"10.3 µM [rising, partial curve]"
Cc1ccc(C(=O)CCNc2cccc(Br)c2)o1,-18.1%,,
COC(=O)/C=C(\C)N=Nc1c(O)[nH]c2ccccc12,-42.8%,"16.4 µM [falling, partial curve]","14.6 µM [falling, partial curve]"
CCn1c(-c2cc(-c3ccccc3OC)nc3ccccc23)n[nH]c1=S,39%,"8.2 µM [rising, partial curve]","7.31 µM [rising, partial curve]"
Cc1onc(-c2ccccc2)c1C(=O)Nc1nc2c(s1)C(=O)CC(C)(C)C2,77.6%,"6.51 µM [rising, single point]","14.6 µM [rising, partial curve]"
C/C=C/c1ccc(OCCCNC2CCCC2)c(OC)c1,1.94%,"29.1 µM [falling, single point]",
COc1cccc(CNC(=O)CSC(=S)N2CCCC2)c1,-20.9%,,"0.731 µM [falling, full curve, poor fit]"
CCOC(=O)CCS(=O)(=O)c1nc(-c2ccccc2)cc(C(F)(F)F)n1,-86.4%,"29.1 µM [falling, single point]","20.6 µM [falling, partial curve]"
O=C(Nc1ccccc1C(=O)OCC(=O)c1c[nH]c2ccccc12)c1ccco1,-14.2%,,
COc1ccc(N(C)S(=O)(=O)c2cccc(C(=O)NCc3ccc(C)cc3)c2)cc1,-13.4%,"6.51 µM [rising, single point]",
Cc1ccc(CNC(=O)CN(c2ccc(C(C)C)cc2)S(=O)(=O)c2c(C)noc2C)cc1,3.04%,,
OCCNc1cnc2ccccc2n1,-15.5%,"29.1 µM [falling, single point]",

Compound,cell number change,AC50 [1],AC50 [2]
COc1ccc2sc(-c3ccc(SC)cc3)c(C#CC(C)(C)O)c2c1,-36.9%,"0.58 µM [rising, single point]","8.2 µM [falling, single point]"
Cc1cc(NC(=O)Cc2ccccc2)c2ccccc2n1,-36.6%,"16.4 µM [falling, single point]","25.9 µM [falling, single point]"
CCOC(=O)Cc1csc(NC(=S)NC(=O)c2ccc(Cl)cc2)n1,-5.52%,,
Cc1noc(C)c1C(=O)OCC(=O)N(C)C1(C#N)CCCCC1,-14.4%,"23.1 µM [falling, single point]",
CCOC(=O)C1=C(CC)Nc2ccccc2N=C1NC(=O)c1cc(C)on1,7.31%,"3.26 µM [falling, single point]","6.51 µM [rising, single point]"
O=C(c1ccc(OC2CCN(C/C=C/c3ccccc3)CC2)cc1)N1CCCC1,28.8%,"0.731 µM [rising, single point]",
COc1cccc(/C=C2\SC(=S)N(CCCC(=O)N3CCCCC3)C2=O)c1,0.215%,"32.6 µM [falling, single point]",
OCCC1CN(Cc2cc3ccccc3o2)CCN1Cc1ccc(F)cc1 (centres undefined),7.88%,"20.6 µM [rising, single point]",
Cc1cc(C)cc(NC(=O)C2CC3CCC2C3)c1 (centres undefined),13.3%,,"0.00411 µM [rising, full curve, poor fit]"
COc1cccc(C(=O)c2cc3ccc(O)cc3oc2=O)c1,-19.4%,"0.366 µM [falling, full curve, poor fit]",
CCCc1nnc(SCC(=O)NC2CC2)n1C,26.1%,"0.206 µM [rising, single point]",
COc1ccccc1NS(=O)(=O)c1c(C)[nH]c(C)c1C(=O)N1CCCC1,,"6.51 µM [rising, single point]",
COC(=O)/C(=C/Nc1cccc2ccccc12)[N+](=O)[O-],-16.7%,"0.116 µM [rising, full curve]",
Cc1cccc(N2CCN(S(=O)(=O)c3ccc(S(=O)(=O)N4CCCC4)cc3)CC2)c1C,,"0.13 µM [falling, full curve, poor fit]",
COc1ccc(S(=O)(=O)N2CCOCC2)cc1C(=O)NCC(c1ccco1)N1CCCC1 (centres undefined),-5.44%,"0.326 µM [rising, full curve, poor fit]",
CN(C)c1ccc(C(c2nnnn2C(C)(C)C)N2CCc3ccccc3C2)cc1 (centres undefined),-0.111%,"3.66 µM [falling, partial curve]",
Cc1onc(-c2ccccc2Cl)c1C(=O)N1CCC(C(N)=O)CC1,5.65%,"2.59 µM [falling, single point]",
Cc1ccc(C)c(N2CCN(C(=O)CN(C)S(=O)(=O)c3ccc4c(c3)CCC(=O)N4)CC2)c1,-10.3%,"20.6 µM [falling, partial curve, poor fit]",

# Quoted at random: 2 compounds from above, in no set order.
Compound,cell number change,AC50 [1],AC50 [2]
O=C(c1ccc(OC2CCN(C/C=C/c3ccccc3)CC2)cc1)N1CCCC1,28.8%,"0.731 µM [rising, single point]",
CCOC(=O)C1=C(CC)Nc2ccccc2N=C1NC(=O)c1cc(C)on1,7.31%,"3.26 µM [falling, single point]","6.51 µM [rising, single point]"
